Most values lie at the floor of the assay. Slopes are relative: functional sequences can read slightly below zero.
system: Saccharomyces cerevisiae PS128 hsf1 delta, HSF1(1-493) fusion; assay: growth estimate (transactivation domain function in HSF1 fusion, heat-shock survival) (a.u. (slope of normalised read count over time)); higher = stronger growth at 37°C, i.e. more transactivation activity; conditions: library: random library
Description: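 Random 60-nt DNA library encoding peptides of up to 20 aa, fused to the C-terminus of yeast HSF1 residues 1-493 (C-terminal TAD deleted) and expressed from the native HSF1 promoter on a CEN plasmid in hsf1-deleted S. cerevisiae PS128. Cells were selected at 37°C on -trp 5-FOA plates for 0, 2, 4, 6 and 8 days and amplicons were sequenced. Growth estimate is the slope of a robust linear fit of total-sum-normalised read counts (normalised to the first time point) over time, using at least 2 replicates. Sequences are classed functional (TAD activity) above a threshold of -0.13, set from stop-codon control sequences.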

Substance | growth estimate
IDSITSSGLVSVAQFRTRSR | < -0.25
IDSLLKTKT | < -0.25
IDSMDIRMTARSEPTVTPQP | < -0.25
IDSY | < -0.25
IDTQMPP | < -0.25
IDTREMYVFERTSTRTTHSR | -0.243
IDVNQQVGVLRRVLTRHESA | < -0.25
IDWTIIRCAQPKIRDWTSNL | < -0.25
IEAACMGVDDWARIQNTSYL | -0.147
IEASQNSP | < -0.25
IECLRRAQRSQDLQRVLGCF | < -0.25
IEGAKRPYQAWWSVWRYCVS | < -0.25
IEILGPTAVIALRVKNRKSS | < -0.25
IEIMS | < -0.25
IENRDLPLKFVGIGGVTNLQ | -0.245
IEPY | < -0.25
IEQAQAAASWPGPGELSDFW | -0.0395
IESPPPAEEN | < -0.25
IESRQWLRSER | < -0.25
IESVELRN | < -0.25
IETVRCTPTEGLRNGGCST | < -0.25
IEVRV | < -0.25
IEYGSGVRSTGSVRRRSYIG | < -0.25
IFFAAERAMS | < -0.25

Substance | growth estimate
IFGHVGRVGFYSQRGFVN | < -0.25
IFHCLLEEYLTLARAGSRAI | < -0.25
IFKCGLVVLGRCLVLLGDVC | < -0.25
IFKLSSTVQD | < -0.25
IFLTNNVTR | < -0.25
IFNMSSLDLGDSNENQSAGA | < -0.25
IFSS | < -0.25
IFSVE | < -0.25
IFTSAMRIIRTS | < -0.25
IFVESGGQS | < -0.25
IFVGWVGYVKYESKEHSCTQ | -0.221
IFVLFRKSQSCIKSL | < -0.25
IFVLVFPHRDKLRGEAGDSK | < -0.25
IFVTTYTH | < -0.25
IFYGSLLG | < -0.25
IGAFTPAVRDVLTRTTPGSW | < -0.25
IGAGNPIVTGCVGCCWFAST | < -0.25
IGAQQWFQQYRGQGTGIGSY | < -0.25
IGDCWDVPMYTMCTVLIRHL | < -0.25
IGDPGTSGWLARVGTALQDV | < -0.25
IGEM | < -0.25
IGGPEKS | < -0.25
IGGSVGRRAIDVFAK | < -0.25
IGGTLCGADCGFGRRVTSTR | -0.243

Substance | growth estimate
IGHGLGKLAGAD | < -0.25
IGLLTVPRSQGGIVVAYGCT | < -0.25
IGLRLELSL | < -0.25
IGNTQILSCSVRGSLSVSFR | < -0.25
IGP | < -0.25
IGPFRVIHGAGYENSAPLTP | < -0.25
IGPLVQGGRLAEVC | < -0.25
IGPRLLIHTAFSGHTAAVTC | < -0.25
IGRADLGGRIDQKDVKRFLR | < -0.25
IGRRLGPGVSLVAAPIGCIT | < -0.25
IGRTMFTLGGTRRLRGGS | < -0.25
IGRVPASASTAGF | < -0.25
IGSNVG | < -0.25
IGSRRSCM | < -0.25
IGTLSTPPSSGTLHRVGGYS | < -0.25
IGTRGSKPNSSLG | < -0.25
IGTRIKGDRHVRVARG | < -0.25
IGVIAVVAGCWERLP | < -0.25
IGVKVRIECSHTGKQVQP | < -0.25
IGVLYGLRVVKTCAGMPSSV | < -0.25
IHFRGR | -0.248
IHFVRRHQGHLRRGHVSFII | -0.23
IHGHHKKVCLINSVGIYSYR | < -0.25
IHIGPLAAPLGVRGAWWVGH | < -0.25

Single values from the list.
IEASQNSP – growth estimate: < -0.25
IFVGWVGYVKYESKEHSCTQ – growth estimate: -0.221
IEYGSGVRSTGSVRRRSYIG – growth estimate: < -0.25
IEIMS – growth estimate: < -0.25
IESPPPAEEN – growth estimate: < -0.25
IHIGPLAAPLGVRGAWWVGH – growth estimate: < -0.25
IDSLLKTKT – growth estimate: < -0.25

Next part.

Substance | growth estimate
IHKRVVEYAPLC | < -0.25
IHKYDER | < -0.25
IHQIQ | < -0.25
IHRQPRTC | < -0.25
IHSFHADALGRP | < -0.25
IHTSNDHGCDVASEKGVPRL | < -0.25
IHVLSSCR | < -0.25
IHVSSPPAIGVGTRIG | < -0.25
IHVVLVLLP | < -0.25
IHYA | < -0.25
IIAY | < -0.25
IIDSNAVVSGT | < -0.25
IIECAKT | < -0.25
IIERDVVNSKDVMSGRWGFY | -0.111
IIFQRCVEIHRIGDEKDFR | < -0.25
IIGCLAAGVREIAASSMNRI | < -0.25
IIGNLLKGSL | < -0.25
IIIRNTVTGAFAGKNEGLRI | < -0.25
IIKGTTVHVVSQCKAPRRHA | < -0.25
IIKVLFLVKCGEYGNTCRTP | -0.243
IIL | < -0.25
IILPYQSQCW | < -0.25
IIPSGTFRLRVGSGVGKRES | < -0.25

From the supplement of paper PMC5949888
